In PMC3903627:

Legend:
GST-ArgBP2 SH3 A domain = assay: pull-down; same experiment as a5: P1 peptide (50 uM) as competitor on the GST-SH3 domains on beads; both purified
GST-ArgBP2 SH3 B domain = assay: as above

binding (GST-ArgBP2 SH3 A domain): binds
binding (GST-ArgBP2 SH3 B domain): binds
Binder: AQPARPPPPAQPGE (acetylated at the amino terminus; amidated at the carboxyl terminus) [P1 peptide]

These are yes or no findings as the source states them, for the method shown. Binding calls can cover weak binding; strength is not graded here.
